PMC12999284

Sequences of proteins named here, by UniProt entry; tags and fusion partners are left off. A change or cut given only in a name is not applied to a line headed by its entry.
UniProt P24347: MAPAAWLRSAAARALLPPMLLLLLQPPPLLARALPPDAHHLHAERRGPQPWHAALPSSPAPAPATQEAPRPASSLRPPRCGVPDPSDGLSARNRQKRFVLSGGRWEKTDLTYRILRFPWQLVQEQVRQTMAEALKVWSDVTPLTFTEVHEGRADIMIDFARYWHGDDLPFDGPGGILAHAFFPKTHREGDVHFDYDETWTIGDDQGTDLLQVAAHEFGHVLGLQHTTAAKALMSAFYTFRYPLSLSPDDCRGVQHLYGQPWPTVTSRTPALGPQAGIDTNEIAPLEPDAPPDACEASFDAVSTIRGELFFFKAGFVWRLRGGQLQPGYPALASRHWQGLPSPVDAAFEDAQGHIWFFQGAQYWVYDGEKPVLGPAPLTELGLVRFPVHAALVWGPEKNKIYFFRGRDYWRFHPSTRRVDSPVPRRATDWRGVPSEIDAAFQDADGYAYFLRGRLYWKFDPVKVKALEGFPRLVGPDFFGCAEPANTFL

Target: T1, RAB24 (UniProt Q969Q5)
T1 sequence: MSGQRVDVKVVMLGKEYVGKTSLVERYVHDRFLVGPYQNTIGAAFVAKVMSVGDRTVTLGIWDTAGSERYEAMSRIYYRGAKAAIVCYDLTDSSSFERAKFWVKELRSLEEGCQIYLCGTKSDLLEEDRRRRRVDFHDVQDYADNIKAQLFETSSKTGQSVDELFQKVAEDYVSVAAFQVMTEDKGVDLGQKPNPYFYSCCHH
Experiment: co-IP; a series of co-immunoprecipitation assays; cells, antibodies and which protein was precipitated are not told in the text shown

binding: binds
Substance: MMP11 (from UniProt P24347)

These are yes or no findings as the source states them, for the method shown. Binding seen in cells or lysates may run through a third protein. Binding can be weak; no strength is given.
